Assay results taken from US20030219839A1 (published 2003).
These are yes or no findings as the source states them, for the method shown. Some entries that bind do so weakly or less than the wild type.

The chains behind the UniProt entries cited, without tags or fusion partners. Residues count along the entry.
UniProt P01127, residues 82-190: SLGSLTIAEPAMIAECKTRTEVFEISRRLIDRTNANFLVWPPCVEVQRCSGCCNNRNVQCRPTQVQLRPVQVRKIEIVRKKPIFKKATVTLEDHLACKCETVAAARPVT

Key:
[1] = molecular target: recombinant human platelet derived growth factor (PDGF-BB) (human) (UniProt P01127); test: competition ELISA (FIG. 18)
[2] = molecular target: recombinant human platelet derived growth factor (PDGF-BB) (human) (UniProt P01127); test: solid phase ELISA
human PDGF M (human) = human PDGF M (human) (UniProt P04085); test: solid phase ELISA
[3] = molecular target: recombinant human platelet derived growth factor (PDGF-BB) (human) (UniProt P01127); test: solid phase ELISA: plate coated with the named form of PDGF, serial dilutions of mouse C1 Fab (axis in dilutions 1/x, no mass unit), OD
human PDGF-AB (human) = human PDGF-AB (human) (UniProt P04085+P01127); test: as above
[4] = molecular target: recombinant human platelet derived growth factor (PDGF-BB) (human) (UniProt P01127); test: competition ELISA (FIG. 20)
[5] = molecular target: recombinant human platelet derived growth factor (PDGF-BB) (human) (UniProt P01127); test: competition ELISA: antibody pre-incubated with 10 ng/ml PDGF-BB, then added to a plate coated with PDGF receptor beta/Fc; receptor-bound PDGF-BB detected by biotinylated anti-PDGF-BB antibody and streptavidin-alkaline phosphatase, OD405; blocked partner: PDGF receptor beta/Fc

Measured: binding

B1: C1 mouse anti-PDGF Fab (Fab, V domains shown)
VH: QVLLEQSGSELVRPGASVKLSCKASGYTFTSTWMNWVKKRPDQGLEWIGRIDPYDSETHYNQKFKDKAILTVDKSSSTAYMQLSRLTSEDSAVYYCARGGHMITPAMDYWGQGTSVTVSS
VL: VQVLTQSPAIMSASPGEKVTITCTASSSVSYMHWFQQKPGTSPKLLIYSASNLASGVPARFSGSGSGTSYSLTISRMEAEDAATYYCQQRSSYPWTFGGGTKLEIKR
notes: Mouse light chain and heavy chain Fd cloned in phagemid pRL4; purified over a Ni column; detected by an HA tag; also called mouse C1; murine antibody C1
binds: all assays above
